Laboratory results reported in patent US9981005.
No constants are given. Whether binding was seen depends on the method and setting. Binding seen in cells or lysates may run through a third protein. Some results given as binding are weak or reduced against the parent protein; the word gives no strength. Tags and fused reporters may be left off the sequences shown. Each block holds one binder with its values, some of them ahead of it.

By UniProt entry, the sequences of proteins in these tests, tags left out. Where a name states a change or a piece, a line headed by the entry shows the natural chain unless it says otherwise.
UniProt Q969H0: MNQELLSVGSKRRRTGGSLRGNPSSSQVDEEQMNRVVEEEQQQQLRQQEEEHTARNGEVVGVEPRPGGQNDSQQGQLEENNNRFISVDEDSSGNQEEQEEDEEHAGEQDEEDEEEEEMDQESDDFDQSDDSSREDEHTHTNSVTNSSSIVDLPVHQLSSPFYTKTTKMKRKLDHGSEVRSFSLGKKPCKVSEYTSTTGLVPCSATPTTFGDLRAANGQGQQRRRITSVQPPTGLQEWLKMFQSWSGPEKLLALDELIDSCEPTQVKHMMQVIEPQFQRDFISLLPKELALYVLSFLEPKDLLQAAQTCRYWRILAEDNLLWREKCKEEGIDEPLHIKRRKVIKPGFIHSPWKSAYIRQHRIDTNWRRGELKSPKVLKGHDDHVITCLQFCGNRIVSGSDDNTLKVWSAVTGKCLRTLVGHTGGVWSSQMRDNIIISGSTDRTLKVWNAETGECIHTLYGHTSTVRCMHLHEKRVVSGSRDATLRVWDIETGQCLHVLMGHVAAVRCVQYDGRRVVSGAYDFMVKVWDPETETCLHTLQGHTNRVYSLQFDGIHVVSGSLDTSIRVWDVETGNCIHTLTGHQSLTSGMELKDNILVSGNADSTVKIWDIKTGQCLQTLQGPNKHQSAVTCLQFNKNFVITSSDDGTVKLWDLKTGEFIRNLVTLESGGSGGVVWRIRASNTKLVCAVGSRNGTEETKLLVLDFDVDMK

Molecular target: FLAG-tagged FBXW7 (Homo sapiens (Human)) (UniProt Q969H0)
Test: co-immunoprecipitation from HEK293 lysate, anti-FLAG beads, Western blot

- binding: binds
B1: GFP-tagged DISC1 (protein, not shown: large carriers)
chain: MPGGGPQGAPAAAGGGGVSHRAGSRDCLPPAACFRRRRLARRPGYMRSSTGPGIGFLSPAVGTLFRFPGGVSGEESHHSESRARQCGLDSRGLLVRSPVSKSAAAPTVTSVRGTSAHFGIQLRGGTRLPDRLSWPCGPGSAGWQQEFAAMDSSETLDASWEAACSDGARRVRAAGSLPSAELSSNSCSPGCGPEVPPTPPGSHSAFTSSFSFIRLSLGSAGERGEAEGCPPSREAESHCQSPQEMGAKAASLDGPHEDPRCLSRPFSLLATRVSADLAQAARNSSRPERDMHSLPDMDPGSSSSLDPSLAGCGGDGSSGSGDAHSWDTLLRKWEPVLRDCLLRNRRQMEVISLRLKLQKLQEDAVENDDYDKAETLQQRLEDLEQEKISLHFQLPSRQPALSSFLGHLAAQVQAALRRGATQQASGDDTHTPLRMEPRLLEPTAQDSLHVSITRRDWLLQEKQQLQKEIEALQARMFVLEAKDQQLRREIEEQEQQLQWQGCDLTPLVGQLSLGQLQEVSKALQDTLASAGQIPFHAEPPETIRSLQERIKSLNLSLKEITTKVCMSEKFCSTLRKKVNDIETQLPALLEAKMHAISGNHFWTAKDLTEEIRSLTSEREGLEGLLSKLLVLSSRNVKKLGSVKEDYNRLRREVEHQETAYETSVKENTMKYMETLKNKLCSCKCPLLGKVWEADLEACRLLIQSLQLQEARGSLSVEDERQMDDLEGAAPPIPPRLHSEDKRKTPLKVLEEWKTHLIPSLHCAGGEQKEESYILSAELGEKCEDIGKKLLYLEDQLHTAIHSHDEDLIQSLRRELQMVKETLQAMILQLQPAKEAGEREAAASCMTAGVHEAQA

- binding: binds
B2: V5-tagged DISC1 (protein, not shown: small tags and cut ends)
chain: B1 chain
